Measurements taken from publication PMC9784857, “In Vitro Characterization of a Nuclear Receptor-like Domain of the Xylanase Regulator 1 from Trichoderma reesei” (Journal of Fungi, 2022).
Changes are numbered by the printed parent chain. For at least one entry, the source does not settle the construct or the ends of the probe. For some assays here: Weaker means in comparison with the reference protein, sequence or condition of that experiment. At least one verdict was read from the data and is not stated in words by the source. Where a protein sequence is shown, tags need not be part of it.

Key:
[1] = target: T1, Xyr1A824V A804V (Trichoderma reesei) (UniProt G0RLE8); experiment: EMSA; details: EMSA: 15 ng probe, 10 min, 0.2 µg/µL p(dIdC) plus unspecific duplex CKT067/CKT068, recombinant protein, protein details: C-terminal His6, label: 5' FAM on strand 1
T1 sequence (looked up, limits assumed): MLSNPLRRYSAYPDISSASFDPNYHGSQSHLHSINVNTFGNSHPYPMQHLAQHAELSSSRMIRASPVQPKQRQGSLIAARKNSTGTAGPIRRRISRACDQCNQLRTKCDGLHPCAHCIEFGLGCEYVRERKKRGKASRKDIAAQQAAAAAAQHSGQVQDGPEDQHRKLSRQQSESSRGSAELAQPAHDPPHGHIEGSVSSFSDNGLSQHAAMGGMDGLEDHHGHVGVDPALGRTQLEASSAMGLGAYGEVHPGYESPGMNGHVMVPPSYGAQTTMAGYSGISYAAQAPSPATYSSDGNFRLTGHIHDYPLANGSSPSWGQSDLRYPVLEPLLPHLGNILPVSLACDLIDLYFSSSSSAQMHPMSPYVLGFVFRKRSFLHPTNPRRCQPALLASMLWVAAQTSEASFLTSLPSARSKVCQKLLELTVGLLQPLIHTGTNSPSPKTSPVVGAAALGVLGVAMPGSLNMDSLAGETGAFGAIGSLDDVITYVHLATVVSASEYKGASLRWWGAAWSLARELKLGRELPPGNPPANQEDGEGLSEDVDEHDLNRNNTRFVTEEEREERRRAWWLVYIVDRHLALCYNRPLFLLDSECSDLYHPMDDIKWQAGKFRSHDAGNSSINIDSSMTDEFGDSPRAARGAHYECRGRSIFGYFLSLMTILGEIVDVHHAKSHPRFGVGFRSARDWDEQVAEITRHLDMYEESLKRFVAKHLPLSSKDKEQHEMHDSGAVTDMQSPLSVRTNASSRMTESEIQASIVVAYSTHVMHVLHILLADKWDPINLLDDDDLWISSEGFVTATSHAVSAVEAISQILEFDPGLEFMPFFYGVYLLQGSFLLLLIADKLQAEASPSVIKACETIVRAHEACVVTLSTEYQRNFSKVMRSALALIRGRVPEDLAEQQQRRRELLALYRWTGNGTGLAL

[2] = target: T2, Xyr1 (Xylanase regulator 1) (Trichoderma reesei) (UniProt G0RLE8); experiment: EMSA; details: sophorose, same shifts as without (data not shown); EMSA: 15 ng probe, 10 min, 0.2 µg/µL p(dIdC) plus unspecific duplex CKT067/CKT068; recombinant protein; protein details: C-terminal His6; label: 5' FAM on strand 1
T2 sequence (looked up, limits assumed): T1 sequence (looked up, limits assumed) with V804A

Sequence: TTGGCAGGCTAAATGCGACATCTTAGCCGGATGCA (double strand) [FAM-labelled xyn1 URR fragment, Pxyn1f_FAM/Pxyn1r]
- binding result ([1]; 170-1360 ng protein, weak double shift only at highest amount): binds more weakly
- binding result ([1]; D-glucose-6-phosphate, complex formation not affected by sugar (data not shown)): binds more weakly
- binding result ([1]; D-xylose, complex formation not affected by sugar (data not shown)): binds more weakly
- binding result ([1]; sophorose, complex formation not affected by sugar (data not shown)): binds more weakly
- binding result [2]: binds
